Reference: PMC10639050, “ZNF432 stimulates PARylation and inhibits DNA resection to balance PARPi sensitivity and resistance”

Protein sequences, listed by entry. Tags and fused reporters are not part of them.
UniProt O94892: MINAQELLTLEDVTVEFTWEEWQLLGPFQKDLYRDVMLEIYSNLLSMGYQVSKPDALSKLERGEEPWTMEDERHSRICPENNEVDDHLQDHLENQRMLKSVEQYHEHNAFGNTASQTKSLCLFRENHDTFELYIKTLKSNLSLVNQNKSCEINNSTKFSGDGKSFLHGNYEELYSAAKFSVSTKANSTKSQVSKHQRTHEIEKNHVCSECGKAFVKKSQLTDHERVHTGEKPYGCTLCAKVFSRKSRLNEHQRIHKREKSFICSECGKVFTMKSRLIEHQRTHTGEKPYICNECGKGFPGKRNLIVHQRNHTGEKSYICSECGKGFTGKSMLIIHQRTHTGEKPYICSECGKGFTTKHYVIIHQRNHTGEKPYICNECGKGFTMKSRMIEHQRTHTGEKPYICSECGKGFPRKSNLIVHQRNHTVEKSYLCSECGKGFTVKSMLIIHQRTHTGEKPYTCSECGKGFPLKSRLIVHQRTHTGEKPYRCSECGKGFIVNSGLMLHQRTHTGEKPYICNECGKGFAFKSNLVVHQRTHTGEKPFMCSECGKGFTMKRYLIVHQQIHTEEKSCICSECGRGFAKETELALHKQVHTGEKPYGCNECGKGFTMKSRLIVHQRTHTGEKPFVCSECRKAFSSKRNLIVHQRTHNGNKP
UniProt O75530: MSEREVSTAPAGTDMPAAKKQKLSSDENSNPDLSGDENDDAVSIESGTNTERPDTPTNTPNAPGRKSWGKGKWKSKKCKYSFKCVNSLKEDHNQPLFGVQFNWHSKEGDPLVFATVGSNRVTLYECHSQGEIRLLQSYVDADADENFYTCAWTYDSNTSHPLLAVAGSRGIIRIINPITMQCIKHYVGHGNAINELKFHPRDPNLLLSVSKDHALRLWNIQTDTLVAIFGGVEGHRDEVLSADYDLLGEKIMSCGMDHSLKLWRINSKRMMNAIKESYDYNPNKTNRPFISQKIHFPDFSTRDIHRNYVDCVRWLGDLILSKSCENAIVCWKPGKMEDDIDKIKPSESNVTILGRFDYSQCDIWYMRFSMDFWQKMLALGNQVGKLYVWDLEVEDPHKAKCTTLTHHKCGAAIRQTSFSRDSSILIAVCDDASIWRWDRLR
UniProt P11387: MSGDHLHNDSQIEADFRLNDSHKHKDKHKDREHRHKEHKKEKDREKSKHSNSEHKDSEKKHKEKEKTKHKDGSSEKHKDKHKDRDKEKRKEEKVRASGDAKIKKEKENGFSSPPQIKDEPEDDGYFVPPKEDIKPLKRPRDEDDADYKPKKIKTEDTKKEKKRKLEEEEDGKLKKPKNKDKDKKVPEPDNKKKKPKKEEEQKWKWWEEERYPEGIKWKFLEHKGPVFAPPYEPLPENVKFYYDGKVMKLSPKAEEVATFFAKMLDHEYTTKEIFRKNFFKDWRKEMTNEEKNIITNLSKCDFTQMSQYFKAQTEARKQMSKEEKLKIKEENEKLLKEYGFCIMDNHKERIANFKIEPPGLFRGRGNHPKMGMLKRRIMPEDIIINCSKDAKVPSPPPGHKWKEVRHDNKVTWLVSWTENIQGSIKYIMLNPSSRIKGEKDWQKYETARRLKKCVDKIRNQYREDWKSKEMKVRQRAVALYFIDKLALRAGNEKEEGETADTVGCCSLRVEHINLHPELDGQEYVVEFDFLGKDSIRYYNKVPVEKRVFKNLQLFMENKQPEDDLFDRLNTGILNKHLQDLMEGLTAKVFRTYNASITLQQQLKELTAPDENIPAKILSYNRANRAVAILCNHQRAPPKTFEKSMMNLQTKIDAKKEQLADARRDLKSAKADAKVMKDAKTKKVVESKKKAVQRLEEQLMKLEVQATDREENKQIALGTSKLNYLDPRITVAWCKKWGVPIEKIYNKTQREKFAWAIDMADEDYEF
UniProt Q01105: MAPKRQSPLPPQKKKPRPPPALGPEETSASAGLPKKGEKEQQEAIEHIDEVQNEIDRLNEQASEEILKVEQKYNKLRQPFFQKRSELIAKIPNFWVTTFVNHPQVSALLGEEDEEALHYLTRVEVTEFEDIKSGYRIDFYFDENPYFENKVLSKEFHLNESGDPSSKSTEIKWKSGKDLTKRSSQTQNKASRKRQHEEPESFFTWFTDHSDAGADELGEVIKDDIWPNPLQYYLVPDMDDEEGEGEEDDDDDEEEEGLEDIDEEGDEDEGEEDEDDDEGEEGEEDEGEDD
UniProt P35637: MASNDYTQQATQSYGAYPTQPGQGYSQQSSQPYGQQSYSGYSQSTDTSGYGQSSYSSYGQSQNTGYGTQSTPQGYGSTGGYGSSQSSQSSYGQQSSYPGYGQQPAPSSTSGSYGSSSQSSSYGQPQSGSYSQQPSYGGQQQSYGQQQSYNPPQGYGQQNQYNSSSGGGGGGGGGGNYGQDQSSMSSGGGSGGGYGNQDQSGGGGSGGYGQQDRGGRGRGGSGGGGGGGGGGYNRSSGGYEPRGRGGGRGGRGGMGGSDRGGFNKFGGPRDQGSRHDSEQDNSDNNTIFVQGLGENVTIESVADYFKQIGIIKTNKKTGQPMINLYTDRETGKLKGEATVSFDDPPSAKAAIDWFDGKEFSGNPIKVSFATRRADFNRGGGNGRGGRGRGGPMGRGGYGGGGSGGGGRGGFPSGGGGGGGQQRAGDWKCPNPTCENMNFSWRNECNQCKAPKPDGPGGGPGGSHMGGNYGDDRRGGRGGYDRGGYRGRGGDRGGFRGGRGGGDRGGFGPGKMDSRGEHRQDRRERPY
UniProt Q9Y5B9: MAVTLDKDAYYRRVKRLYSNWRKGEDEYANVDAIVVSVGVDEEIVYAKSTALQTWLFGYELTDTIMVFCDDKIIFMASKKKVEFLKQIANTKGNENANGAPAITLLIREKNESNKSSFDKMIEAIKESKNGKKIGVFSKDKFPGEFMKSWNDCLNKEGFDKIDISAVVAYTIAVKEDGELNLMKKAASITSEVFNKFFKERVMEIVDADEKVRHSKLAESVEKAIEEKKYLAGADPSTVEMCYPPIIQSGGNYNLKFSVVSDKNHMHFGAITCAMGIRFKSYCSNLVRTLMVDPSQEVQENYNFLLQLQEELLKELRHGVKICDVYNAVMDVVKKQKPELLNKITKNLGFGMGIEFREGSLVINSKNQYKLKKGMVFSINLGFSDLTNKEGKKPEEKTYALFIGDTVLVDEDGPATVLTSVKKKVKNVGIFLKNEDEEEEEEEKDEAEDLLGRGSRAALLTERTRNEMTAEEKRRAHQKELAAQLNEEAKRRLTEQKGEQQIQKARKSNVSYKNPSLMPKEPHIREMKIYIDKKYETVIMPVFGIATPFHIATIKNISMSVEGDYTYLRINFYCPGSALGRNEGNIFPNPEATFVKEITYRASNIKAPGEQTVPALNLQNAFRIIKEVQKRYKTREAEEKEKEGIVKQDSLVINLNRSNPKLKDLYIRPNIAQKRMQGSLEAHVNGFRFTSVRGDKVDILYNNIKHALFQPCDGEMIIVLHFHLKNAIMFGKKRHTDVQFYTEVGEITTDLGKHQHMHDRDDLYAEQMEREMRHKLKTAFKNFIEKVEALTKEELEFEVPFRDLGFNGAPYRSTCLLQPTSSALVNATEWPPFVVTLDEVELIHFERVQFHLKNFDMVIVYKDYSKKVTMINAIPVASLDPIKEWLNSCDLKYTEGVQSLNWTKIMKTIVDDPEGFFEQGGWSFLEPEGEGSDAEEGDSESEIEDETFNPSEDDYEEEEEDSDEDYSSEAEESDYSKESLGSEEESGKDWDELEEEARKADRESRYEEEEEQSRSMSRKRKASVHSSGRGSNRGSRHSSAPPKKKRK
UniProt P13010: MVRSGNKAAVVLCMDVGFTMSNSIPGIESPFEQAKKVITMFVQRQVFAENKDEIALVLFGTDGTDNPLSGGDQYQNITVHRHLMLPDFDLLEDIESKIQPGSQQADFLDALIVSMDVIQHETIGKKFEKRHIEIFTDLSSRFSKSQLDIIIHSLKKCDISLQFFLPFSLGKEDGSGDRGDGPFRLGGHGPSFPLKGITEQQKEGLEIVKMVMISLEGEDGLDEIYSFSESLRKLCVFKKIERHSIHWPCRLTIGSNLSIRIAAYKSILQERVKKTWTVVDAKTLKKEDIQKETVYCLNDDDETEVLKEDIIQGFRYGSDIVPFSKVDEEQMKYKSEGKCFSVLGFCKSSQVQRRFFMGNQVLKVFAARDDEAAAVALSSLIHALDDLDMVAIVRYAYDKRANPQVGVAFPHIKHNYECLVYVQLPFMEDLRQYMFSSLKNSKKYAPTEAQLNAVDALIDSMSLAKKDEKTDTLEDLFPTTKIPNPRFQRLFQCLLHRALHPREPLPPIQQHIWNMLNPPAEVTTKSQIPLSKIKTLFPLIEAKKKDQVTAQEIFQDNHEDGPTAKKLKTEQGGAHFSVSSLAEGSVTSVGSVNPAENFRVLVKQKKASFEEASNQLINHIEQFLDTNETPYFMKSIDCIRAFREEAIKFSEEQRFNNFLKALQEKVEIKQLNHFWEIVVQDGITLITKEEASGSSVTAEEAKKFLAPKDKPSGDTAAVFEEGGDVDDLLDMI
UniProt Q13263: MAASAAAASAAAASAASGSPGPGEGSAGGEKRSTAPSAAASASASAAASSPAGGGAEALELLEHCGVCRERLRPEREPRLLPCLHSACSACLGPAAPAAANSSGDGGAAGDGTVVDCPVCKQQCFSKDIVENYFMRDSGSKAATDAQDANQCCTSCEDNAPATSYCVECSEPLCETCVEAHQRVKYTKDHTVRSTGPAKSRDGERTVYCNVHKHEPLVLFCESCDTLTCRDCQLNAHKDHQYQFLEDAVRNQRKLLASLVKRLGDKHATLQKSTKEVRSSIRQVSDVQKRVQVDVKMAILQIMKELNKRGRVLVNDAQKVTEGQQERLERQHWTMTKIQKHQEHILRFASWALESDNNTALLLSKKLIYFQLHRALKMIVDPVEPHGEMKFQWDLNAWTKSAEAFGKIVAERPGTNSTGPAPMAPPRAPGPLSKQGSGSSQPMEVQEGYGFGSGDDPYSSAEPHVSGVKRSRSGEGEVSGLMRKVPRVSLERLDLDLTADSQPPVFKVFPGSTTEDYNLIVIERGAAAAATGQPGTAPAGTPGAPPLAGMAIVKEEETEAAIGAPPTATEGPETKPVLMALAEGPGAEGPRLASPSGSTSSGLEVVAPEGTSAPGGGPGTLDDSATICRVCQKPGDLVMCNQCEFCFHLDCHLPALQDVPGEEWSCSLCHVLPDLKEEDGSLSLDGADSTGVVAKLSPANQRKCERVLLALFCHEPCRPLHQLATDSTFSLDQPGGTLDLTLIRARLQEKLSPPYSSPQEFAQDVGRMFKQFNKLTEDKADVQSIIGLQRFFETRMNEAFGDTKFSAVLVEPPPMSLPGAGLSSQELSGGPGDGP
UniProt O60264: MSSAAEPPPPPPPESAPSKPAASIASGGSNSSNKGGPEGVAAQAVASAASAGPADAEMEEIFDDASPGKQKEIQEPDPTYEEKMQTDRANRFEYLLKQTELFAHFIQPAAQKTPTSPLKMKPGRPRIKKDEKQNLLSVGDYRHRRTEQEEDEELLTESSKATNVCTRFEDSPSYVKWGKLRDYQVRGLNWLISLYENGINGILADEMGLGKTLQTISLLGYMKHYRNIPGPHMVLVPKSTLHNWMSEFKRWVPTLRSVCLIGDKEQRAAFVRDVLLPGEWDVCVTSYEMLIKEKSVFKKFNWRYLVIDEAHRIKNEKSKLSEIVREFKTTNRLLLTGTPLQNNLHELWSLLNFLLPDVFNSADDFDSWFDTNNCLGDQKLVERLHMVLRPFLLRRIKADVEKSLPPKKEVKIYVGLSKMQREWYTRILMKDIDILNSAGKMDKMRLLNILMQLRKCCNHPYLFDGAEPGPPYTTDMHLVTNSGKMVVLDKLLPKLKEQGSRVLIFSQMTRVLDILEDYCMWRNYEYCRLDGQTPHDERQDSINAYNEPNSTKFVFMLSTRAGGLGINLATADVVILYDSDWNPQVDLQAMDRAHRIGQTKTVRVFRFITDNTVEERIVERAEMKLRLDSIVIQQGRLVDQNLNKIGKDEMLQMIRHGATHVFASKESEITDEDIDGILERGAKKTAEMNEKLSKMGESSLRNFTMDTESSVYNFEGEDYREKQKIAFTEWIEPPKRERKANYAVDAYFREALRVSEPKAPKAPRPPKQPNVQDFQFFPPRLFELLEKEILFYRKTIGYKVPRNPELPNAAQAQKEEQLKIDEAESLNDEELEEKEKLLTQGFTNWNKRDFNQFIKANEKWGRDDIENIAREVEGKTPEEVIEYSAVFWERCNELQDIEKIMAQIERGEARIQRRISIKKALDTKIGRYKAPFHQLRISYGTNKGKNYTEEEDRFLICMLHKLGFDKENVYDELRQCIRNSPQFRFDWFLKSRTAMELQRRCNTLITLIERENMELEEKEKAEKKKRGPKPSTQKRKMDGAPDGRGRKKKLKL

Biological target: GFP-ZNF432 (expressed in HEK293T cells) (human) (UniProt O94892)
Experiment: affinity purification with mass spectrometry; GFP-ZNF432 captured from HEK293T whole cell extracts (wild type and PARP-1 KO, untreated or hydrogen peroxide) on Protein G Dynabeads coated with anti-GFP antibody; 40 mM HEPES pH 7.5, 0.3% CHAPS, 150 mM NaCl, 4°C, 2 h; on-bead digestion, LC-MS/MS

binding: binds
Molecule: poly(ADP-ribose) polymerase-1 (endogenous, HEK293T) (from UniProt P09874 1-1014)

binding: binds
Molecule: EED (from UniProt O75530 1-441)

binding: binds
Molecule: BLM (from UniProt P54132 1-1417)

binding: binds
Molecule: XRCC6/KU70 (from UniProt P12956 1-609)

binding: binds
Molecule: TOP1 (from UniProt P11387 1-765)

binding: binds
Molecule: nuclear oncogene SET (from UniProt Q01105 1-290)

binding: binds
Molecule: HDAC1 (from UniProt Q13547 1-482)

binding: binds
Molecule: MDC1 (from UniProt Q14676 1-2089)

binding: binds
Molecule: PRKDC/DNA-PKcs (from UniProt P78527 1-4128)

binding: binds
B2: CTCF (CCCTC-binding factor) (protein, UniProt P49711 1-727)
chain: MEGDAVEAIVEESETFIKGKERKTYQRRREGGQEEDACHLPQNQTDGGEVVQDVNSSVQMVMMEQLDPTLLQMKTEVMEGTVAPEAEAAVDDTQIITLQVVNMEEQPINIGELQLVQVPVPVTVPVATTSVEELQGAYENEVSKEGLAESEPMICHTLPLPEGFQVVKVGANGEVETLEQGELPPQEDPSWQKDPDYQPPAKKTKKTKKSKLRYTEEGKDVDVSVYDFEEEQQEGLLSEVNAEKVVGNMKPPKPTKIKKKGVKKTFQCELCSYTCPRRSNLDRHMKSHTDERPHKCHLCGRAFRTVTLLRNHLNTHTGTRPHKCPDCDMAFVTSGELVRHRRYKHTHEKPFKCSMCDYASVEVSKLKRHIRSHTGERPFQCSLCSYASRDTYKLKRHMRTHSGEKPYECYICHARFTQSGTMKMHILQKHTENVAKFHCPHCDTVIARKSDLGVHLRKQHSYIEQGKKCRYCDAVFHERYALIQHQKSHKNEKRFKCDQCDYACRQERHMIMHKRTHTGEKPYACSHCDKTFRQKQLLDMHFKRYHDPNFVPAAFVCSKCGKTFTRRNTMARHADNCAGPDGVEGENGGETKKSKRGRKRKMRSKKEDSSDSENAEPDLDDNEDEEEPAVEIEPEPEPQPVTPAPPPAKKRRGRPPGRTNQPKQNQPTAIIQVEDQNTGAIENIIVEVKKEPDAEPAEGEEEEAQPAATDAPNGDLTPEMILSMMDR

binding: binds
B3: ZNF280C/ZPET (protein, UniProt Q8ND82 1-737)
chain: MDDDKPFQPKNISKMAELFMECEEEELEPWQKKVEETQDEDDDELIFVGEISSSKPAISNILNRGHSSSSSKGIKSEPHSPGIPEIFRTASQRCRDPPSNPVAASPRFHLVSKSSQSSVTVENASKPDFTKNSQVGSDNSSILLFDSTQESLPPSQDIPAIFREGMKNTSYVLKHPSTSKVNSVTPKKPKTSEDVPQINPSTSLPLIGSPPVTSSQVMLSKGTNTSSPYDAGADYLRACPKCNVQFNLLDPLKYHMKHCCPDMITKFLGVIVKSERPCDEDKTDSETGKLIMLVNEFYYGRHEGVTEKEPKTYTTFKCFSCSKVLKNNIRFMNHMKHHLELEKQNNESWENHTTCQHCYRQYPTPFQLQCHIESTHTPHEFSTICKICELSFETEHILLQHMKDTHKPGEMPYVCQVCQFRSSTFSDVEAHFRAAHENTKNLLCPFCLKVSKMATPYMNHYMKHQKKGVHRCPKCRLQFLTSKEKAEHKAQHRTFIKPKELEGLPPGAKVTIRASLGPLQSKLPTAPFGCAPGTSFLQVTPPTSQNTTARNPRKSNASRSKTSKLHATTSTASKVNTSKPRGRIAKSKAKPSYKQKRQRNRKNKMSLALKNIRCRRGIHKCIECHSKIKDFASHFSIYIHCSFCKYNTNCNKAFVNHMMSSHSNHPGKRFCIFKKHSGTLRGITLVCLKCDFLADSSGLDRMAKHLSQRKTHTCQVIIENVSKSTSTSEPTTGCSLK

The next lines start with the molecule.

Molecule: SUZ12 (from UniProt Q15022 1-739)
binding: binds

Molecule: FUS (from UniProt P35637 1-526)
binding: binds

Molecule: SUPT16H (from UniProt Q9Y5B9 1-1047)
binding: binds

Molecule: XRCC5/KU80 (from UniProt P13010 1-732)
binding: binds

Molecule: SSRP1 (from UniProt Q08945 1-709)
binding: binds

Molecule: KRAB-associated protein 1 (from UniProt Q13263 1-835)
binding: binds

Molecule: SMARCA5 (from UniProt O60264 1-1052)
binding: binds

B1: ZNF281 (protein, UniProt Q9Y2X9 1-895)
chain: MKIGSGFLSGGGGTGSSGGSGSGGGGSGGGGGGGSSGRRAEMEPTFPQGMVMFNHRLPPVTSFTRPAGSAAPPPQCVLSSSTSAAPAAEPPPPPAPDMTFKKEPAASAAAFPSQRTSWGFLQSLVSIKQEKPADPEEQQSHHHHHHHHYGGLFAGAEERSPGLGGGEGGSHGVIQDLSILHQHVQQQPAQHHRDVLLSSSSRTDDHHGTEEPKQDTNVKKAKRPKPESQGIKAKRKPSASSKPSLVGDGEGAILSPSQKPHICDHCSAAFRSSYHLRRHVLIHTGERPFQCSQCSMGFIQKYLLQRHEKIHSREKPFGCDQCSMKFIQKYHMERHKRTHSGEKPYKCDTCQQYFSRTDRLLKHRRTCGEVIVKGATSAEPGSSNHTNMGNLAVLSQGNTSSSRRKTKSKSIAIENKEQKTGKTNESQISNNINMQSYSVEMPTVSSSGGIIGTGIDELQKRVPKLIFKKGSRKNTDKNYLNFVSPLPDIVGQKSLSGKPSGSLGIVSNNSVETIGLLQSTSGKQGQISSNYDDAMQFSKKRRYLPTASSNSAFSINVGHMVSQQSVIQSAGVSVLDNEAPLSLIDSSALNAEIKSCHDKSGIPDEVLQSILDQYSNKSESQKEDPFNIAEPRVDLHTSGEHSELVQEENLSPGTQTPSNDKASMLQEYSKYLQQAFEKSTNASFTLGHGFQFVSLSSPLHNHTLFPEKQIYTTSPLECGFGQSVTSVLPSSLPKPPFGMLFGSQPGLYLSALDATHQQLTPSQELDDLIDSQKNLETSSAFQSSSQKLTSQKEQKNLESSTGFQIPSQELASQIDPQKDIEPRTTYQIENFAQAFGSQFKSGSRVPMTFITNSNGEVDHRVRTSVSDFSGYTNMMSDVSEPCSTRVKTPTSQSYR
binding: binds

No constants are given. Whether binding was seen depends on the method and setting. Binding seen in cells or lysates may run through a third protein. Here binding means that the protein was enriched with, or labelled near, the bait; the list need not be complete. One block for each molecule: values may come before it.
